{"source": "PubChem BioAssay AID588479", "about": "(NMMLSC, 2011)", "note": "Inconclusive results, whose numbers are uncertain, are shown with a selection of clear calls. Calls of active or inactive are those of the source.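 Rule for the calls: active = eight-GTPase mean potency score over 50, needing half-effect dose up to 10 µM and response span 30% or more; inconclusive = no clear call, values can overlap the other calls; inactive = the rest.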"}
{"system": "RacACT", "assay": "inhibitors of GTP binding to eight small GTPases, SAR follow-up, biochemical, round 1 SAR, Mg buffer, multiplex flow cytometry (AID 588479)", "conditions": "multiplex GST-GTPase beads, Bodipy-GTP binding, constitutively active; at 100 µM (top of the series)", "how_it_was_run": "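Control set – DMSO wells as high control, 0.5 mM unlabeled GTP as low control · Assay system – GST-GTPase bead multiplex, wild-type and constitutively active forms · Measured by – flow cytometry, green median fluorescence per bead · Evaluation – normalized response, EC50 by four-parameter fit · Times – binding incubation 40–45 min, 4 °C · Reagent – Bodipy-FL-GTP at 100 nM final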"}
{"smiles": "CCOC(=O)c1c(NC(=S)Nc2ccccc2)sc2c1CC(C)(C)OC2", "outcome": "inconclusive"}
{"smiles": "Cc1ccc(Nc2nc3sc4c(c3c(=O)o2)CCN(C)C4)cc1", "outcome": "inconclusive"}
{"smiles": "CCOC(=O)c1c(NC(=O)Nc2ccc(C)cc2)sc2c1CCN(C)C2", "outcome": "inconclusive"}
{"smiles": "COC(=O)c1c(N)sc2c1CC(C)(C)OC2", "outcome": "inconclusive"}
{"smiles": "CC(C)(C)OC(=O)c1c(NC(=S)NC(=O)c2ccccc2)sc2c1CCOC2", "outcome": "inconclusive"}
{"smiles": "Cc1ccc(NC(=O)Nc2sc3c(c2C(=O)O)CCN(C)C3)cc1", "response, lower = inhibition": "inactive: 106%"}
{"smiles": "CCOC(=O)c1c(NC(=O)Nc2ccc(F)cc2)sc2c1CCN(C)C2", "outcome": "inconclusive"}
{"smiles": "CCOC(=O)c1c(NC(=O)NC(C)(C)C)sc2c1CCN(C)C2", "outcome": "inconclusive"}
{"smiles": "CC1(C)Cc2c(sc(NC(=S)NC(=O)c3cccc(Br)c3)c2C(=O)O)CO1", "response, lower = inhibition": "inactive: 95.4%"}
{"smiles": "CCOC(=O)c1c(NC(=S)NC(=O)c2ccccc2)sc2ccccc12", "outcome": "inconclusive"}
{"smiles": "CC1(C)Cc2c(sc(NC(=S)Nc3ccccc3)c2C(=O)O)CO1", "response, lower = inhibition": "inactive: 113%"}
{"smiles": "CN1CCc2c(sc3nc(Nc4ccc(F)cc4)oc(=O)c23)C1", "outcome": "inconclusive"}
{"smiles": "CN1CCc2c(sc(NC(=O)Nc3ccc(F)cc3)c2C(=O)O)C1", "outcome": "inconclusive"}
{"smiles": "CCOC(=O)c1c(N)sc2ccccc12", "response, lower = inhibition": "inactive: 108%"}
{"smiles": "CC1(C)Cc2c(sc(NC(=O)Cc3ccccc3)c2C(=O)O)CO1", "response, lower = inhibition": "inactive: 95.8%"}
